Some of the results follow.
Compound: CC1Cc2ccccc2N1C(=O)C1CCCN(C1)C(=O)CCl (mixture of isomers) [TRIM25 ligand 11 (diastereomer mixture)]
Assay: probe-labelled cysteine peptide fold change vs DMSO (competition) (log2 fold change); higher = less target engagement (more negative = stronger competition)
Conditions: THP-1, incubation time: 4 h
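Note: competitive chemoproteomic profiling in live THP-1 cells with an iodoacetamide desthiobiotin (IA-DTB) probe, comparing probe-labelled peptide intensities in compound-treated cells against DMSO-treated controls.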

| Target | probe-labelled cysteine peptide fold change (10 µM) | probe-labelled cysteine peptide fold change (50 µM) |
| --- | --- | --- |
| KLC1_Q07866_436_EFGSVDDENKPIWMHAEEREECK (UniProt Q07866) | -0.0593 | 0.0558 |
| LARP4_Q71RC2_623_KLSYAEVCQKPPKEPSSVLVQPLR (UniProt Q71RC2) | -0.0136 | -0.246 |
| LCOR_Q96JN0-3_1334_MECPDALAVESK (UniProt Q96JN0) | 0.0423 | -0.0816 |
| KNTC1_P50748_911_IIDLIDREQGEDCLLLLK (UniProt P50748) | 0.282 | 0.137 |
| LCP1_P13796_336_AECMLQQAER (UniProt P13796) | -0.0301 | -0.0249 |
| LARS_Q9P2J5_1053_IREDCCPGKPLNVFR (UniProt Q9P2J5) | 0.0323 | -0.0921 |
| KPTN_Q9Y664_221_RLSALGCQSGYVR (UniProt Q9Y664) | -0.00935 | 0.154 |
| LACTB2_Q53H82_58_ILIDTGEPAIPEYISCLK (UniProt Q53H82) | 0.0984 | -0.0283 |
| KLC4_Q9NSK0_53_SEHQAVLQSLSQTIECLQQGGHEEGLVHEK (UniProt Q9NSK0) | -0.107 | -0.145 |
| LCOR_Q96JN0-3_968_NAHIPSESIACK (UniProt Q96JN0) | 0.0458 | -0.153 |
| KIF22_Q14807_575_AEDCWELQISPELLAHGR (UniProt Q14807) | -0.0871 | 0.135 |
| KLHL7_Q8IXQ5_259_TVQAEPLIQDNPECLK (UniProt Q8IXQ5) | 0.039 | 0.116 |
| LARP1B_Q659C4_649_HSTNPPLECHVGWVMDSR, A0A3B3ISF0+Q659C4 | 0.123 | 0.0455 |
| KPNB1_Q14974_392_DAAVMAFGCILEGPEPSQLK (UniProt Q14974) | 0.124 | 0.208 |
| KIF20A_O95235_487_SCMIVNVNPCASTYDETLHVAK (UniProt O95235) | 0.0465 | 0.123 |
| KRAS_P01116_118_CDLPSR (UniProt P01116) | -0.0999 | -0.118 |
| KIFC1_Q9BW19_212_ACVLELEER (UniProt Q9BW19) | 0.0347 | -0.0696 |
| LDAH_Q9H6V9_274_LTFYYGTIDPWCPK (UniProt Q9H6V9) | -0.0349 | -0.0608 |
| LAS1L_Q9Y4W2_60_AEWDQVTVYLFCDDHK (UniProt Q9Y4W2) | 0.323 | 0.479 |

| Target | probe-labelled cysteine peptide fold change (10 µM) | probe-labelled cysteine peptide fold change (50 µM) |
| --- | --- | --- |
| LAMC1_P11047_447_CQPGFHSLTEAGCRPCSCDPSGSIDECNIETGR (UniProt P11047) | 0.153 | -0.0719 |
| KLHDC4_Q8TBB5_58_TQTVELPCPPPSPR (UniProt Q8TBB5) | 0.0743 | -0.0886 |
| KIF22_Q14807_201_VLDLLDPASGDLVIREDCR (UniProt Q14807) | -0.154 | -0.158 |
| LARP1_Q6PKG0_502_RREEPEKWPLPPIVDYSQTDFSQLLNCPEFVPR (UniProt Q6PKG0) | -0.0362 | -0.156 |
| KIFC1_Q9BW19_663_VNQCVIGTAQANR (UniProt Q9BW19) | 0.197 | 0.211 |
| LAMP1_P11279_338_CNAEEHVR (UniProt P11279) | -0.00458 | 0.0599 |
| KPNA6_O60684_253_VSPCLPVLSR (UniProt O60684) | -0.167 | -0.102 |
| LAMTOR2_Q9Y2Q5_92_VANLLLCMYAK (UniProt Q9Y2Q5) | -0.0512 | 0.117 |
| KLHL20_Q9Y2M5_356_CGVGVSVLDDLLYAVGGHDGSSYLNSVER (UniProt Q9Y2M5) | 0.0717 | -0.023 |
| KIF2C_Q99661_344_ATCFAYGQTGSGK (UniProt Q99661) | 0.00355 | 0.00268 |
| LAMP2_P13473_153_CNSLSTLEK (UniProt P13473) | 0.00999 | 0.0103 |
| KIF20A_O95235_809_AACIAEQYHTVLK (UniProt O95235) | 0.0246 | 0.0489 |
| KLHDC3_Q9BQ90_355_LAVIQYNLDQSCLPHDIR (UniProt Q9BQ90) | 0.147 | 0.312 |
| LARS_Q9P2J5_936_QPLQKPSHCTIYVAK (UniProt Q9P2J5) | -0.184 | -0.302 |
| KLHL42_Q9P2K6_399_QQMVSVEETIYIVGGCLHELGPNRR (UniProt Q9P2K6) | 0.0912 | 0.485 |
| KMT2B_Q9UMN6_1268_HLLECER (UniProt Q9UMN6) | 0.101 | 0.112 |
| L3MBTL2_Q969R5_197_AAPVSCFK (UniProt Q969R5) | 0.00668 | 0.0309 |
| LACTB2_Q53H82_21_VLGCNPGPMTLQGTNTYLVGTGPR (UniProt Q53H82) | -0.0989 | -0.185 |
| LACTB2_Q53H82_100_SINNDTTYCIK (UniProt Q53H82) | -0.0643 | -0.0889 |
